# Test results from PMC4546403.
# By UniProt entry, the sequences of proteins in these tests, tags left out. Where a name states a change or a piece, a line headed by the entry shows the natural chain unless it says otherwise. Chains listed by the source or under a name are the forms on record and can include a tag or linker. Residues count along the entry.
# mSmoWT-YFP (wild type mouse Smoothened with YFP tag) (P56726, residues 33-793): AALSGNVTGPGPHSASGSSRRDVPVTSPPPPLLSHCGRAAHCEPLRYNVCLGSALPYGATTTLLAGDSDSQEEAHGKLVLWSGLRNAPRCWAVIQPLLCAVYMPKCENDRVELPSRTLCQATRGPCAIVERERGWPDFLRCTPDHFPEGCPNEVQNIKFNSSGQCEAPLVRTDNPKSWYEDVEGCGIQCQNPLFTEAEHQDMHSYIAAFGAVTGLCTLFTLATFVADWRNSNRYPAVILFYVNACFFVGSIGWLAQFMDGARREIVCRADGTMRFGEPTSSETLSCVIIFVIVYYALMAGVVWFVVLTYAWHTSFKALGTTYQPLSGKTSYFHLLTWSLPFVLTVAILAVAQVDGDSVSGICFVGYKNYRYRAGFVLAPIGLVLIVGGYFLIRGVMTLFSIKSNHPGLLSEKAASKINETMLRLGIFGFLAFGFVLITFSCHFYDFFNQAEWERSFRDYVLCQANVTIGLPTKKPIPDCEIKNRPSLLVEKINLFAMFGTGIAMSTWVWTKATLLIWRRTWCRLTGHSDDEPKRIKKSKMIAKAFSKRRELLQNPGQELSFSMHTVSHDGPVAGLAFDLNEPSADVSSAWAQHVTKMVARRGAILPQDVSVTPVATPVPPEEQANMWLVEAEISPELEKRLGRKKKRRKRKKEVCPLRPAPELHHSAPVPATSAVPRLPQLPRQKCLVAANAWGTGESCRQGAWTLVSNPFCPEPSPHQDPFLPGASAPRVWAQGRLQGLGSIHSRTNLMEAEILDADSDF
# mSmoNQ4-V5 (mouse Smoothened N38Q, N192Q, N450Q, N497Q with V5 epitope tag) (P56726, form named): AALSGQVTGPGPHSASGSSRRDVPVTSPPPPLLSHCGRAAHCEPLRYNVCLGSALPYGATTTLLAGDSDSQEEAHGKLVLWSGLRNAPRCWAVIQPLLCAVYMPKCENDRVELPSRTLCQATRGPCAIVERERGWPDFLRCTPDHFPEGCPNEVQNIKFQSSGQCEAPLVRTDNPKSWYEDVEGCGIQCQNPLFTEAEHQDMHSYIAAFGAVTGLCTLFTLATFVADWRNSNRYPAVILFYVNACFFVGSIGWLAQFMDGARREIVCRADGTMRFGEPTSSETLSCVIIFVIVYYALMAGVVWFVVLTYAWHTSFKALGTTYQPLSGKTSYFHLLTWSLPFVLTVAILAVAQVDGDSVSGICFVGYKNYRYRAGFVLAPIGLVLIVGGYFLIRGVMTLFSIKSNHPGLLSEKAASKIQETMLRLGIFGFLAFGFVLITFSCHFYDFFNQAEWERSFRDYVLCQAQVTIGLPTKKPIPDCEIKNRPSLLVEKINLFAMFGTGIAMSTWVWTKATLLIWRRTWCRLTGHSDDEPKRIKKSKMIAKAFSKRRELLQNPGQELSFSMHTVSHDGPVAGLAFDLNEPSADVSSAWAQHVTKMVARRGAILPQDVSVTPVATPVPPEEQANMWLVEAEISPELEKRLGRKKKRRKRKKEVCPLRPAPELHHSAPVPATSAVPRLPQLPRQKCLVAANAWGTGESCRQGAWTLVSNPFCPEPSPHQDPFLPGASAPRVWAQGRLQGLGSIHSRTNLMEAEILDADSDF
# Results are given in words; binding and its absence hold for the method and conditions named. In cells and extracts the contact can be indirect. Some results given as binding are weak or reduced against the parent protein; the word gives no strength.
# Assays:
# [1] = target: mSmoNQ4-YFP (mouse Smoothened N38Q, N192Q, N450Q, N497Q with YFP tag) (mouse) (UniProt P56726); experiment: co-IP; Differentially tagged mSmo proteins co-expressed in NIH3T3 cells; RIPA lysates (~200 ug protein) pre-cleared, incubated with 5 ug anti-GFP or rabbit IgG control at 4°C for 2 hours, collected on protein A/G beads; western blot against V5
# [2] = target: mSmoWT-YFP (wild type mouse Smoothened with YFP tag) (mouse) (UniProt P56726); experiment: as above
substance,measurement,setting,value
"mSmoNQ4-V5 (mouse Smoothened N38Q, N192Q, N450Q, N497Q with V5 epitope tag) (from UniProt P56726 33-793) (receptor)",binding,[1],binds
same,binding,[2],binds
